According to the supplement of paper PMC11006884:
The list shows a part of the results, in another mix than the full data.

Chains of the proteins cited; added tags and fusions are not shown. Lines headed by an entry give the natural chain unless they say otherwise; changes in a name come on top.
UniProt Q96D70: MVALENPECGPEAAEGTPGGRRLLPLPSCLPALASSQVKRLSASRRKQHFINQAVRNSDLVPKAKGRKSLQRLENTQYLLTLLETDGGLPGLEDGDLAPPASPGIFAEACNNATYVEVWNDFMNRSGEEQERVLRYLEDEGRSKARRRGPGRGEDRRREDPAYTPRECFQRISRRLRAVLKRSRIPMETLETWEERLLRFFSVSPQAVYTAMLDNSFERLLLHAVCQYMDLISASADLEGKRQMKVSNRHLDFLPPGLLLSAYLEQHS
UniProt Q96F63: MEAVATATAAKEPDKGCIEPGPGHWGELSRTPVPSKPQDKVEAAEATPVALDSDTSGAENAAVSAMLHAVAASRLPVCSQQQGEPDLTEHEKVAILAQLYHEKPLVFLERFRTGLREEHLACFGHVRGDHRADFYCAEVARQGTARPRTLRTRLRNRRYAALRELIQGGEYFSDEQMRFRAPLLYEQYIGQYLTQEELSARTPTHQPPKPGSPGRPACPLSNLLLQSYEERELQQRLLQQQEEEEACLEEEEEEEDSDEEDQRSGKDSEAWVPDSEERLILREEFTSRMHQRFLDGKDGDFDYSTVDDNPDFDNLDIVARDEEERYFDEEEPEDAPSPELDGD
UniProt Q969E8: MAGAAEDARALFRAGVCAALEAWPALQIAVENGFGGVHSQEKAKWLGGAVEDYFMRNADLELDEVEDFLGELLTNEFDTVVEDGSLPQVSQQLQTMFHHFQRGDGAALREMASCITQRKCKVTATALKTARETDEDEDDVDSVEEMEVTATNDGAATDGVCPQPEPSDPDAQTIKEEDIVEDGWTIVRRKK
UniProt Q96BD8: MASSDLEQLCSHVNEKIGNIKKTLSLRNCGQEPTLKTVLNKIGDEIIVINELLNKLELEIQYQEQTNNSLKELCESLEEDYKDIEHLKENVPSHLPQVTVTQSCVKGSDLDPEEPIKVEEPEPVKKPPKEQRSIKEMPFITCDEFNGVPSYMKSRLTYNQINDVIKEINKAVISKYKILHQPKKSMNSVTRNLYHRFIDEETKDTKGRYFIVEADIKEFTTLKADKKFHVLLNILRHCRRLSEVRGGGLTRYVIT
UniProt Q96B54: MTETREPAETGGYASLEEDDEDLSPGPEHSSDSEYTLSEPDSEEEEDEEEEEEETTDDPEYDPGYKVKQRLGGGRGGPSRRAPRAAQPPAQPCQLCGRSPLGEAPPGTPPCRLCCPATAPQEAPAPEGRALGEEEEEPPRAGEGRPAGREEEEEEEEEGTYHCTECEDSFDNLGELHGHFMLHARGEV
UniProt Q96FS4: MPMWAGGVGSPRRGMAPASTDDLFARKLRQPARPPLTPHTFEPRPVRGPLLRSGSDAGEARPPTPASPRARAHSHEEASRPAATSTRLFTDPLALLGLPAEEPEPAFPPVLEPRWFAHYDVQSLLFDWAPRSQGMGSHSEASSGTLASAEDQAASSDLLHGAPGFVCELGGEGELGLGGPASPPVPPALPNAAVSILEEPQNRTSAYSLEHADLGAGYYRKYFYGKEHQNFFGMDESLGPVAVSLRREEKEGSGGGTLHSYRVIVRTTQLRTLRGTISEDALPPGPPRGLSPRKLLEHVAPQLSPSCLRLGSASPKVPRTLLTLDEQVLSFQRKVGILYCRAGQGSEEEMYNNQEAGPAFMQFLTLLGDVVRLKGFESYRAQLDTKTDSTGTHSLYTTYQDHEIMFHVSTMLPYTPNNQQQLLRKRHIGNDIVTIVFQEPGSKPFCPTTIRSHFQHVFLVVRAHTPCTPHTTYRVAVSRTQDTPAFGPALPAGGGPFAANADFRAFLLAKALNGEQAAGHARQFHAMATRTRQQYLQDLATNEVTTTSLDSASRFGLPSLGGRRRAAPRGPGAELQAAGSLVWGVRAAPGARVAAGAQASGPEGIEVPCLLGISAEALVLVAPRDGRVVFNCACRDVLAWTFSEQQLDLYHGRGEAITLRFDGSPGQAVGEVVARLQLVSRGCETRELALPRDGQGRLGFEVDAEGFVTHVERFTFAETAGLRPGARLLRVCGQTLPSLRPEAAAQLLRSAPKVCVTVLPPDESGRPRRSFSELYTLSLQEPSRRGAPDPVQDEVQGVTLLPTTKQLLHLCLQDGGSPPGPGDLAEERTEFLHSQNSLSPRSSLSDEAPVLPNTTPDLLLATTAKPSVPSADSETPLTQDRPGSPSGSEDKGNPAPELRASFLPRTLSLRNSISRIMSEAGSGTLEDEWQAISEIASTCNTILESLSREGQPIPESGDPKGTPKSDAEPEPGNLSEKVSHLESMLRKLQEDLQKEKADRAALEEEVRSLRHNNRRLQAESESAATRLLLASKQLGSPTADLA
UniProt Q92667: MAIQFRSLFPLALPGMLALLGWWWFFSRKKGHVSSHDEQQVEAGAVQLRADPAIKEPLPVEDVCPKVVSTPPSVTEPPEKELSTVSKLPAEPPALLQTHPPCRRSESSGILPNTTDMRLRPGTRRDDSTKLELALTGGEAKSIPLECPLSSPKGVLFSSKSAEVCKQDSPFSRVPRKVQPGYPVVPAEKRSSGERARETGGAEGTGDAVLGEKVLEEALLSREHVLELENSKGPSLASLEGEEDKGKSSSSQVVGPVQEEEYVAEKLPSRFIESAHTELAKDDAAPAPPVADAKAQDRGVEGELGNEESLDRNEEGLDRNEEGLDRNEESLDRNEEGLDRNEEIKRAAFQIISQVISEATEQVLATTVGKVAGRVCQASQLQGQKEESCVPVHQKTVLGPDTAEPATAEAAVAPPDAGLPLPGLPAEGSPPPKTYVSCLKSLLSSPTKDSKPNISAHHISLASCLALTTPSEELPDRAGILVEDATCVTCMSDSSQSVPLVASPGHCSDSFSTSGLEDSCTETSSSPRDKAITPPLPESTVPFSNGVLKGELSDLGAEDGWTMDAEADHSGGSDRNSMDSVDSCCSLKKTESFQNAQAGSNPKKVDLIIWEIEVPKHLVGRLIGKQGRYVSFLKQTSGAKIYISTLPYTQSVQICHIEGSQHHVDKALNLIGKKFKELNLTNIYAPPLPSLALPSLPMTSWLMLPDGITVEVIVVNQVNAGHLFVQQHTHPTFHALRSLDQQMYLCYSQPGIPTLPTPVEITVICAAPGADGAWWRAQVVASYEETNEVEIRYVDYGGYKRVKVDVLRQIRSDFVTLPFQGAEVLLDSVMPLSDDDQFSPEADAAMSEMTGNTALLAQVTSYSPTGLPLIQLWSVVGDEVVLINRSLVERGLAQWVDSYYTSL
UniProt Q92945: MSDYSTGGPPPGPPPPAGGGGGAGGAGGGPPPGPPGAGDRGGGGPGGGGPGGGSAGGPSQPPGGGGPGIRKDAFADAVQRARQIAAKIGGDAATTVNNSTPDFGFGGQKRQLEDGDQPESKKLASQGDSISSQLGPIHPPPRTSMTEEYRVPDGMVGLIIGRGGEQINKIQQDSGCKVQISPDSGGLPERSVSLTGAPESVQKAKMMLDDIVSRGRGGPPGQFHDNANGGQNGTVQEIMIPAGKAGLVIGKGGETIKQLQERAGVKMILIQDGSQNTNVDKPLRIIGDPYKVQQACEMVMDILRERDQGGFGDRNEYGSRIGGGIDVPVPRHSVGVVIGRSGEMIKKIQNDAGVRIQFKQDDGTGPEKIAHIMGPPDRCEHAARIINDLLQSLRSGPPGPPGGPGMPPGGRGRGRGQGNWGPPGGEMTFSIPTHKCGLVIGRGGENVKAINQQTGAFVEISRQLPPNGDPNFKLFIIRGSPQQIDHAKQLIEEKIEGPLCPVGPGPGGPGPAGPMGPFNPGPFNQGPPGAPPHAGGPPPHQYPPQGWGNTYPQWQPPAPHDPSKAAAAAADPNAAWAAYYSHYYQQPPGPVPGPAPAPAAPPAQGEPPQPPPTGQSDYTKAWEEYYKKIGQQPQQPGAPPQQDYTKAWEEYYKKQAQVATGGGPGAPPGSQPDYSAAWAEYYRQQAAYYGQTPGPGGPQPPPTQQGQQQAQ
UniProt Q96GX2: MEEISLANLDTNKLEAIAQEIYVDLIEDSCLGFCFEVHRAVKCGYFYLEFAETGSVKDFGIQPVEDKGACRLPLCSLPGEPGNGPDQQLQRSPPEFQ
UniProt Q96DG6: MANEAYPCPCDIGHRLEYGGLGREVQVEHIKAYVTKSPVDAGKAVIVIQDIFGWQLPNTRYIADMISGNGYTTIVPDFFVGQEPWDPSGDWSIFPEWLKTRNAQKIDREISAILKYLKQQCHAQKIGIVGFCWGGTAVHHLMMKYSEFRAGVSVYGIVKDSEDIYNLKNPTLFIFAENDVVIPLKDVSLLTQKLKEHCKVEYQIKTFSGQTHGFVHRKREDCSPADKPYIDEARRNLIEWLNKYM
UniProt Q96C86: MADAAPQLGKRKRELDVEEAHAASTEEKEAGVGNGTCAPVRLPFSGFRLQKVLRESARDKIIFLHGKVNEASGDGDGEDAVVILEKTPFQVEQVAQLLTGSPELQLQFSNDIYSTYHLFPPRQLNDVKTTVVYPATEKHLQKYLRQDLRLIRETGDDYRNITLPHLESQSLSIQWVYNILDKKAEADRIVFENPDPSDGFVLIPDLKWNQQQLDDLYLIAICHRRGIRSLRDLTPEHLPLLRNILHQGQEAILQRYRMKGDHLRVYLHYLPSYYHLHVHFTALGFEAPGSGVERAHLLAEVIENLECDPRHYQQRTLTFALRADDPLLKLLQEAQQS
UniProt Q92621: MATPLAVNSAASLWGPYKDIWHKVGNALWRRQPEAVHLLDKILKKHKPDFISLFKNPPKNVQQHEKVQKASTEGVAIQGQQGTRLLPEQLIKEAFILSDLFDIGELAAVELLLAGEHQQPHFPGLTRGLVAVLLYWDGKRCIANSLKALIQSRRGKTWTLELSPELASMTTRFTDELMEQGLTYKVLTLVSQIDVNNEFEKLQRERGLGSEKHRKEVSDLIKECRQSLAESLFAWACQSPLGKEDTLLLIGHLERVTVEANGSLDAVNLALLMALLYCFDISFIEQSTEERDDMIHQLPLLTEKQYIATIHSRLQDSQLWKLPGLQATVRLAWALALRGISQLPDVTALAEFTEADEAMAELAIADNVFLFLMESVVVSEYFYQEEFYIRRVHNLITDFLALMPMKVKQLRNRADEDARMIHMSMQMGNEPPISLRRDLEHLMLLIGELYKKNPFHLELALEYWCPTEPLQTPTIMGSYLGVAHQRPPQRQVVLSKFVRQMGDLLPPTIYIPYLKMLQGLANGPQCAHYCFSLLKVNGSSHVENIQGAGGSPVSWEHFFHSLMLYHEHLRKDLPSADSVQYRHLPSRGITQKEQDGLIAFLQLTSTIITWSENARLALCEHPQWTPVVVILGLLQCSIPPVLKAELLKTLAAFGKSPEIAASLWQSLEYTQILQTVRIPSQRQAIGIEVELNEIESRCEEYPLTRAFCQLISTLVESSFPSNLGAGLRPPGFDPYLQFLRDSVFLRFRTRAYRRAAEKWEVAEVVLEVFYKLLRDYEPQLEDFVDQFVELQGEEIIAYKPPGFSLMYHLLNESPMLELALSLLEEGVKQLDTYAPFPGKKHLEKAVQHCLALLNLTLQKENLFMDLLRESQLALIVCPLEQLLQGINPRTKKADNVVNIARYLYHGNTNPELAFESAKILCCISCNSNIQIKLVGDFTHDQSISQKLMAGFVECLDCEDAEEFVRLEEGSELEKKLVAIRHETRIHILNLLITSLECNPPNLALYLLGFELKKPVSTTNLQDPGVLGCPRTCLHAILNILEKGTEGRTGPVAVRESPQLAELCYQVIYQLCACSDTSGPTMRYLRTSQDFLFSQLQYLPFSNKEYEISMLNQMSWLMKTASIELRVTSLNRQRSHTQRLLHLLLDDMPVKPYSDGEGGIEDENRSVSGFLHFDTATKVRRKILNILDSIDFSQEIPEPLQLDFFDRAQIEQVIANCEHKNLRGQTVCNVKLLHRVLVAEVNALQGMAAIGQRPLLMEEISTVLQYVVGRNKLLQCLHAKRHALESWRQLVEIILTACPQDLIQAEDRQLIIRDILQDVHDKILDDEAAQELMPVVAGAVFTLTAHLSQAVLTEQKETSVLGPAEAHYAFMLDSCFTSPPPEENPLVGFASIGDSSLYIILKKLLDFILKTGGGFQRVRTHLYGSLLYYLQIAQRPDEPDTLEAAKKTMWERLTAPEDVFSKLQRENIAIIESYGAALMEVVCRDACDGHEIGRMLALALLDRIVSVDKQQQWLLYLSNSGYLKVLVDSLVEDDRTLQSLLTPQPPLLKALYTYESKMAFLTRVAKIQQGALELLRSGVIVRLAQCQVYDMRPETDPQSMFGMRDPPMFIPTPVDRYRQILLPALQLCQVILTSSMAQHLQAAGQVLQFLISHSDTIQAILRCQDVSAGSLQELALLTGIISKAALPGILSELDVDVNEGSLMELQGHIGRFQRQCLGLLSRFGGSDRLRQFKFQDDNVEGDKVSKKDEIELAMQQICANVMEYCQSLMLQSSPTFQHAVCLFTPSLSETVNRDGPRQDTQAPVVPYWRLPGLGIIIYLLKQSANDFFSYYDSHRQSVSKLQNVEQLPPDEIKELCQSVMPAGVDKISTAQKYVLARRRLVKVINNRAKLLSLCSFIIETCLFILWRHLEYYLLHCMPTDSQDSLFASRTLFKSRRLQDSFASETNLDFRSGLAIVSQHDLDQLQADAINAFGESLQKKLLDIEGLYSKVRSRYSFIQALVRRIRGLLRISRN

Compound: COC(=O)C#Cc1ccccc1 [methyl 3-phenylpropiolate]
Assay: log2 ratio of iodoacetamide-alkyne labeling of the cysteine site, DMSO over compound (competition); higher = stronger covalent engagement of the cysteine by the compound, active = 1 or more
Conditions: 500 µM; treatment time 1 h; system: HEK293T cell lysate
Procedure, shortened: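 For each cysteine, the log2 competition ratio is mean control-channel reporter intensity over mean compound-channel reporter intensity. HEK293T lysate (2 mg/mL) was exposed to vehicle or electrophile (500 µM, 1 h, ambient temperature), labelled with iodoacetamide alkyne (1 h), clicked to sCIP-TMT reagents, digested overnight with trypsin at 37 °C, streptavidin-enriched and analysed by Orbitrap Eclipse LC-MS/MS with FAIMS and FragPipe. Cysteines quantified in only one of three replicates, each with duplicate channels, were excluded.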

Target	log2 ratio of iodoacetamide-alkyne labeling
OTUD5 C519 (UniProt Q96G74)	inactive: 0.384
HSPH1 C310 (UniProt Q92598)	inactive: -0.0673
RNF34 C65 (UniProt Q969K3)	inactive: 0.0941
SMARCD1 C460 (UniProt Q96GM5)	inactive: 0.137
SYMPK C848 (UniProt Q92797)	inactive: 0.491
R3HDM4 C29 (UniProt Q96D70)	inactive: 0.31
PYCR2 C262 (UniProt Q96C36)	inactive: 0.538
TUBGCP3 C497 (UniProt Q96CW5)	inactive: 0.282
CREBBP C1199 (UniProt Q92793)	inactive: 0.966
CCDC97 C17 (UniProt Q96F63)	inactive: 0.33
MRPL38 C290 (UniProt Q96DV4)	inactive: -0.134
TSR2 C17 (UniProt Q969E8)	inactive: 0.599
ANP32B C123 (UniProt Q92688)	inactive: -0.00811
UniProt Q96EH3_C233	inactive: -0.205
FAF2 C414 (UniProt Q96CS3)	inactive: 0.0814
UniProt Q96BD8_C10	inactive: 0.363
ZNF428 C111 (UniProt Q96B54)	inactive: 0.523
SIPA1 C732 (UniProt Q96FS4)	inactive: 0.266
ZNF592 C1221 (UniProt Q92610)	inactive: 0.165

An excerpt of these results, in markdown:

| Target | log2 ratio of iodoacetamide-alkyne labeling |
| --- | --- |
| R3HDM4 C29 (UniProt Q96D70) | inactive: 0.31 |
| PYCR2 C262 (UniProt Q96C36) | inactive: 0.538 |

More records

Target	log2 ratio of iodoacetamide-alkyne labeling
SMARCD1 C492 (UniProt Q96GM5)	inactive: 0.446
UniProt Q96FZ5_C12	inactive: 0.296
AKAP1 C147 (UniProt Q92667)	active: 1.02
KHSRP C176 (UniProt Q92945)	inactive: 0.0409
UPF1 C683 (UniProt Q92900)	inactive: -0.0544
UniProt Q92841_C584	inactive: 0.359
ATXN7L3B C75 (UniProt Q96GX2)	active: 1.03
CMBL C10 (UniProt Q96DG6)	inactive: 0.143
DCPS C37 (UniProt Q96C86)	inactive: 0.171
TBRG4 C335 (UniProt Q969Z0)	inactive: 0.436
RAD50 C157 (UniProt Q92878)	inactive: 0.00476
ZNF428 C114 (UniProt Q96B54)	inactive: 0.0848
NUP205 C1715 (UniProt Q92621)	inactive: 0.231
UniProt Q92786_C300	inactive: 0.486
DTNBP1 C302 (UniProt Q96EV8)	inactive: 0.108
ZNF428 C115 (UniProt Q96B54)	inactive: 0.286
RAD50 C633 (UniProt Q92878)	inactive: 0.264
LPP C465 (UniProt Q93052)	inactive: 0.118
